Assay results from patent publication US11332500B2 (BicycleTx Limited, priority 2019, dated 2022).

Test: general procedure: Fmoc solid-phase peptide synthesis; Chlorotrityl resin (1.10 mmol/g); HBTU/DIEA
Conditions: conjugation step

Row | Substance | conjugation yield [% yield] | final purity (method not given) [% purity]
1 | Ac-SDKCSAGWLTMCQK[PYA]LHLCPSH (SEQ ID NO: 6; BCY10861) / [Ac]C[tBuAla]EE(dK)PYCFADPY[Nle]C[Dap(PYA)] (SEQ ID NO: 68; BCY12023) | 41.62 | 97.27
2 | Ac-SDKCSAGWLTMCQK[PYA]LHLCPSH (SEQ ID NO: 9; BCY10861) / [Ac]C[tBuAla]PE[dK]PYCFADPY[Nle]C[Dap(PYA)] (SEQ ID NO: 69; BCY11144) | 34.62 | 94.54
